The values that follow come from US20130178463A1, “ENHANCED TRANSBUCCAL DRUG DELIVERY SYSTEM AND COMPOSITIONS” (Rutgers, The State University of New Jersey, priority 2010, published 2013).

The nature of this data set: In vitro transdermal permeation of LHCl, NHT and DHCl gels (Franz diffusion cells).
Setting [1] is: iontophoresis 0.3 mA for 8 h, listed as lidocaine HCl, mono-hydrochloride, monohydrate.
The mark [2] stands for this setting: iontophoresis 0.3 mA for 8 h, mono-hydrochloride, monohydrate.

Counter-ions that a name gives are not always drawn. Marks after values point to notes of the source that are not given here.

On to `CCN(CC)CC(=O)Nc1c(C)cccc1C` [Lidocaine HCl, 2-(Diethylamino)-2′,6′-acetoxylidide mono-hydrochloride, monohydrate], for which the Q8 is, setting by setting: (Control (untreated passive), 8 h) 59.7 ± 43.4 μg/cm^2; (iontophoresis 0.1 mA for 8 h) 494.0 ± 152.0^b μg/cm^2; under setting [1], 2879.2 ± 531.1^c μg/cm^2; under setting [2], 2879.2 ± 531.1^b μg/cm^2. Also, the Flux (Control (untreated passive), 8 h, […] LHCl, 2% NHT or 2% DHCl gel, mono-hydrochloride, monohydrate) was 7.4 ± 5.8 μg/cm^2*h; the Flux (iontophoresis 0.1 mA for 8 h) is listed as 61.7 ± 20.8^b μg/cm^2*h; the Flux under setting [1] is 375.6 ± 69.44^c μg/cm^2*h; the Flux under setting [2] is 375.6 ± 69.44^b μg/cm^2*h.
